Record: PubChem BioAssay AID720505 (Drosophila RNAi Screening Center, 2013)

- Aim: 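Knock-downs that reduce calcium influx once internal stores are emptied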 (primary screen)
- Cell system: Drosophila S2R+ cells
- Reagents: long dsRNA against Drosophila genes
- Challenge: thapsigargin (2 µM) in calcium-free buffer to empty internal stores, then 2 mM calcium added back
- Measurement: 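Fluo-4 signal in 384-well plates read on a FLIPR after thapsigargin (2 µM, calcium-free) store depletion and 2 mM calcium add-back; unnormalised mean endpoint per well; screen run twice, selected wells retested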
- Direction: calcium signal and retest calcium signal: higher = more calcium entry after store depletion
- Hit rule: 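Knock-downs counted as hits when calcium entry dropped relative to STIM1 positive and Rho1 negative controls present on each plate; roughly 1500 genes called, with reductions of differing size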
- Calls: active = called as lowering calcium entry; inactive = not called
In all, the deposit lists about 20,000 reagents; shown is an unselected part of those that have a named target and a result. In the full data, about 2,100 (10%) were called active. 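Raw plate signals without normalisation; calls rest on control-based scores that were not deposited; replicate 2 separates called from uncalled poorly.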 Entries without a mark were called inactive. A plus sign joins genes that one reagent is predicted to hit. Not given: the amount of reagent, the time to read-out.

Target gene | PubChem SID | calcium signal, replicate 1 | calcium signal, replicate 2 | retest calcium signal, replicate 1 | retest calcium signal, replicate 2
CG14881 | SID104194797 | 133 | 134 | – | –
beat-Ia (beaten path Ia) | SID104183281 | 120 | 124 | – | –
CG4891 | SID104181728 | 103 | 91.1 | – | –
CG31955 | SID104180077 | 148 | 101 | – | –
Or13a (Odorant receptor 13a) | SID104200057 | 102 | 132 | – | –
CG8065 | SID104190751 | 76.1 (active) | 92.9 | – | –
CG14767 | SID104186292 | 179 | 178 | – | –
Boh2 (Buddy of Hmr 2) | SID104182569 | 190 | 178 | – | –
CG15252 | SID104197773 | 121 | 108 | – | –
SA2 (Stromalin 2) | SID104188177 | 120 | 136 | – | –
deltaCOP (Coat Protein (coatomer) delta) | SID104198552 | 67.6 (active) | 101 | – | –
CG15365 | SID104197830 | 226 | 79.9 | – | –
CG15365 | SID104202378 | 95.7 | 142 | – | –
Ca-alpha1T (Ca[2+]-channel protein alpha[[1]] subunit T) | SID104197634 | 301 | 96.5 | – | –
Ca-alpha1T (Ca[2+]-channel protein alpha[[1]] subunit T) | SID104197895 | 238 | 111 | 6552 | 148
Ca-alpha1T (Ca[2+]-channel protein alpha[[1]] subunit T) | SID104198148 | 221 | 125 | – | –
Ca-alpha1T (Ca[2+]-channel protein alpha[[1]] subunit T) | SID104198149 | 69.8 (active) | 236 | – | –
Ca-alpha1T (Ca[2+]-channel protein alpha[[1]] subunit T) | SID104201177 | 140 | 86.7 | – | –
CG15638 | SID104181667 | 83.8 | 88.7 | – | –
CG9993 | SID104184391 | 171 | 102 | – | –
Cpr47Ee (Cuticular protein 47Ee) | SID104186135 | 54.8 (active) | 153 | – | –
Cpr47Ee (Cuticular protein 47Ee) | SID104202521 | 101 | 101 | – | –
Tmtc4 (Transmembrane O-mannosyltransferase targeting cadherins 4) | SID104195494 | 113 | 150 | – | –
CG13996 | SID104182120 | 157 | 97.6 | – | –
Chchd3 (Coiled-coil-helix-coiled-coil-helix domain containing 3) | SID104196773 | 149 | 133 | – | –
tko (technical knockout) | SID104198636 | 110 | 128 | – | –
mRpL15 (mitochondrial ribosomal protein L15) | SID104191563 | 144 | 143 | – | –
Spps (Sp1-like factor for pairing sensitive-silencing) | SID104195648 | 146 | 215 | – | –
Spps (Sp1-like factor for pairing sensitive-silencing) | SID104202563 | 185 | 201 | – | –
CG17618 (retired record) + CG45049 | SID104195955 | 205 | 145 | – | –
CG17618 (retired record) + CG45049 | SID104201630 | 91 | 188 | – | –
CG17618 (retired record) + CG45049 | SID104202532 | 70.5 | 106 | – | –
MED24 (Mediator complex subunit 24) | SID104190736 | 94.9 | 82.8 | – | –
hyd (hyperplastic discs) | SID104196763 | 143 | 103 | – | –
Or67d (Odorant receptor 67d) | SID104189950 | 102 | 67.9 | – | –
CG15475 | SID104182278 | 191 | 93.4 | – | –
CG13577 | SID104184005 | 98.7 | 124 | – | –
CG9514 | SID104199982 | 122 | 134 | – | –
CG9514 | SID104199983 | 120 | 156 | – | –
Sec6 (Secretory 6) | SID104186724 | 154 | 102 | – | –
Fer1 (48 related 1) | SID104192299 | 98 | 141 | – | –
Fer1 (48 related 1) | SID104192347 | 111 | 180 | – | –
CG14089 | SID104189885 | 80 | 110 | – | –
CG4259 | SID104180437 | 97.1 | 157 | – | –
CG3652 | SID104180416 | 119 | 144 | – | –
Jwa | SID104181840 | 115 | 105 | – | –
wrm1 + wrm2 | SID104190799 | 131 | 120 | – | –
CG9547 | SID104183052 | 109 | 207 | – | –
Dcps (Decapping enzyme, scavenger) | SID104192091 | 116 | 101 | – | –
CG4098 | SID104190191 | 125 | 177 | – | –
CG8924 | SID104199914 | 137 | 144 | – | –
CG8924 | SID104202384 | 115 | 145 | – | –
CR43999 (retired record) | SID104194397 | 126 | 131 | – | –
CG9010 | SID104187112 | 149 | 97.3 | – | –
CG8160 | SID104186878 | 95.2 | 219 | 155 | 87.7
CG8160 | SID104201180 | 183 | 102 | – | –
CG7655 | SID104196067 | 193 | 291 | – | –
PGAP3 (Post-GPI attachment to proteins 3) | SID104184781 | 142 | 111 | – | –
AIF (Apoptosis inducing factor) | SID104180488 | 100 | 128 | – | –
Cyt-c1L (Cytochrome c1-like) | SID104194652 | 104 | 81.1 | – | –
Cyt-c1L (Cytochrome c1-like) | SID104201666 | 92.9 | 223 | – | –
Nup160 + RfC38 | SID104181789 | 71.5 | 92.2 | – | –
CG11147 | SID104181921 | 108 | 103 | – | –
CG12061 | SID104200507 | 191 | 103 | – | –
CG14989 | SID104188240 | 140 | 88.3 | – | –
CG31867 | SID104183130 | 162 | 147 | – | –
Scox (Synthesis of cytochrome c oxidase) | SID104182909 | 136 | 103 | – | –
ort (ora transientless) | SID104196032 | 230 | 186 | – | –
pkm (Pinkman) | SID104199466 | 178 | 128 | – | –
Gmppa (GDP-mannose pyrophosphorylase A) | SID104186900 | 113 | 213 | – | –
JMJD5 (Jumonji domain containing 5) | SID104188164 | 86.4 | 80 | – | –
Ifrd1 (Interferon-related developmental regulator 1) | SID104180207 | 104 | 80.9 | – | –
Ifrd1 (Interferon-related developmental regulator 1) | SID104180358 | 81.9 | 78.1 | – | –
Mst89B | SID104196540 | 125 | 188 | – | –
Stam (Signal transducing adaptor molecule) | SID104183236 | 71 | 110 | – | –
CG4914 | SID104190250 | 82.4 | 165 | – | –
Ubc7 (Ubiquitin conjugating enzyme 7) | SID104200091 | 60.8 (active) | 120 | – | –
Rpe (Ribulose-5-phosphate-3-epimerase) | SID104186199 | 134 | 108 | – | –
Prosbeta4 (Proteasome beta4 subunit) | SID104182395 | 48.3 (active) | 98.8 | – | –
Nplp2 (Neuropeptide-like precursor 2) | SID104189616 | 89.5 | 114 | – | –
nonA-l (nonA-like) | SID104196809 | 169 | 132 | – | –
CG33769 | SID104191508 | 114 | 147 | – | –
BoYb | SID104191429 | 64.4 (active) | 141 | – | –
Prosalpha4 (Proteasome alpha4 subunit) | SID104200063 | 109 | 152 | – | –
Arl4 (ADP ribosylation factor-like 4) | SID104196948 | 121 | 165 | – | –
nonC (no-on-and-no-off transient C) | SID104198158 | 197 | 125 | – | –
nonC (no-on-and-no-off transient C) | SID104198159 | 227 | 189 | – | –
brp (bruchpilot) | SID104186037 | 143 | 123 | – | –
brp (bruchpilot) | SID104186038 | 152 | 162 | – | –
brp (bruchpilot) | SID104186593 | 140 | 146 | – | –
brp (bruchpilot) | SID104201521 | 113 | 295 | – | –
TTLL4A (Tubulin tyrosine ligase-like 4A) | SID104182320 | 90.7 | 123 | – | –
CG15601 | SID104199462 | 119 | 147 | – | –
CG34203 | SID104183647 | 135 | 7766 | – | –
CG32104 | SID104189919 | 80.9 | 62.3 | – | –
CG32104 | SID104189920 | 119 | 85.1 | – | –
hdly (hadley) | SID104195641 | 276 | 170 | – | –
CG9795 | SID104192128 | 134 | 119 | – | –
Ibf1 (Insulator binding factor 1) | SID104196211 | 92.6 | 147 | – | –
CG7458 | SID104191621 | 96.9 | 146 | 6510 | 123
CG7458 | SID104201119 | 124 | 95.3 | – | –
RpL21 (Ribosomal protein L21) | SID104183496 | 69.4 (active) | 92.3 | – | –
reb (rebuf) | SID104186100 | 120 | 191 | – | –
t-cup (tetleys-cup) | SID104181046 | 232 | 107 | – | –
CG32091 | SID104189933 | 57.1 | 82.6 | – | –
CG32091 | SID104190612 | 59.6 | 81.9 | – | –

5 consecutive entries already listed, quoted:
Target gene | PubChem SID | calcium signal, replicate 1 | calcium signal, replicate 2 | retest calcium signal, replicate 1 | retest calcium signal, replicate 2
Gmppa (GDP-mannose pyrophosphorylase A) | SID104186900 | 113 | 213 | – | –
JMJD5 (Jumonji domain containing 5) | SID104188164 | 86.4 | 80 | – | –
Ifrd1 (Interferon-related developmental regulator 1) | SID104180207 | 104 | 80.9 | – | –
Ifrd1 (Interferon-related developmental regulator 1) | SID104180358 | 81.9 | 78.1 | – | –
Mst89B | SID104196540 | 125 | 188 | – | –
